Experimental findings from PubChem BioAssay AID1487 (National Center for Advancing Translational Sciences (NCATS), 2009) are described below.

This assay can be described thus: qHTS Assay for Modulators of Lamin A Splicing. The conditions noted are these: HeLa LMNA splicing GFP/RFP minigene ratio, 48 h. A digest of the protocol: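 S3 HeLa cells stably expressing lamin A-EGFP splicing minigene plus DsRed2, 600 cells/well, 48 h compound exposure at 37C. Laser-scanning cytometry; analysed as GFP (500-530 nm)/RFP (575-640 nm) total intensity ratio; 0.5% DMSO vehicle.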

Setting [1] is: measured here: GFP splicing reporter channel.
Setting [2] is: measured here: RFP viability control channel.

This is one part of the list. These are further read-outs of the screen, such as a control signal, another cell line or another target. No call is given for them. Compounds called inactive in the main read-out are mostly missing here. Potencies come from curve fits of mixed quality, noted in brackets.

On to `O=C(Nc1cccc(Cl)c1)N1CC2CCCN2c2ccccc21` (stereo unspecified), for which the AC50 under setting [1] is 31.6 µM [rising, single point] and the AC50 under setting [2] was 35.5 µM [rising, single point].
Turning to `Cc1cc(C)c(OCC(=O)N/N=C/c2ccc3c(c2)OCO3)c(C)c1`, the AC50 under setting [2] was 3.55 µM [rising, full curve].
On to `CCCC1/C(=N/O)CC(c2ccccc2)NC1c1ccccc1` (stereo unspecified), for which the AC50 reads like this: under setting [1], 10 µM [falling, partial curve]; under setting [2], 5.01 µM [falling, partial curve].
For the compound `CCCOc1c(OC)cccc1C1CC(=O)Nc2cc3c(cc21)OCCO3` (stereo unspecified), the AC50 was 35.5 µM [falling, single point] under setting [1] and 35.5 µM [falling, single point] under setting [2].
Regarding `COc1ccc(CNC(=O)c2ccc3c(c2)nc2n3CCCCC2)cc1`, the AC50 under setting [1] was 0.631 µM [rising, single point].
Consider `CCCCc1nnc(NC(=O)C2CC(=O)N(c3ccc(C)cc3)C2)s1` (stereo unspecified), for which the AC50 under setting [1] was 11.2 µM [rising, partial curve, poor fit].
Same read-out and setting: the result for `CC(C)c1ccc(/C=N/N2CCCCC2)cc1` reads 14.1 µM [falling, single point].
With `CCc1c(C)nc2c(C#N)c[nH]n2c1=O`, the AC50 under setting [2] was 3.16 µM [rising, partial curve, poor fit].
For the compound `O=S(=O)(NCC(c1cccs1)S(=O)(=O)c1ccccc1)c1ccccc1` (stereo unspecified), the AC50 under setting [2] is 1.58 µM [rising, full curve].
Still for that read-out and setting: the result for `O=c1oc(Nc2ccc(F)cc2)nc2ccccc12` reads 0.447 µM [falling, partial curve, poor fit].
Consider `Nc1nnc(-c2cccc(Cl)c2Cl)c(N)n1`, for which the AC50 under setting [1] is 3.16 µM [rising, partial curve].
On the same count and under the same terms, in the case of `COc1ccc(/C=N/S(=O)(=O)CCc2ccccc2)c(OC)c1` it was 8.91 µM [falling, partial curve].
As for `CCOC(=O)n1c(=O)n(Cc2cccc(F)c2)c2ccccc21`, the AC50 runs as follows: under setting [1], 20 µM [falling, partial curve, poor fit]; under setting [2], 0.708 µM [falling, full curve].
With `COc1ccccc1CCn1cnc2c3cc(C)ccc3n(C)c2c1=O`, the AC50 is, setting by setting: under setting [1], 5.62 µM [rising, partial curve]; under setting [2], 14.1 µM [rising, partial curve].
On to `COC(=O)c1sc2ncccc2c1OCc1cccc(Cl)c1`, for which the AC50 is 1.78 µM [rising, partial curve, poor fit] under setting [1] and 35.5 µM [rising, single point] under setting [2].
On to `COc1ccc(-c2csc(NC(=O)c3ccco3)n2)cc1`, for which, under setting [2], the AC50 was 22.4 µM [rising, single point].
The same measure, in the same setting: in the case of `CCOc1ccccc1CNC(=O)c1ccc(-n2c(C)cc3c2CCC(C)C3)cc1` (stereo unspecified) it was 15.8 µM [rising, single point].
Consider `COc1ccc2[nH]c(=O)c(CN(Cc3ccccc3)C(=S)NCC3CCCO3)cc2c1` (stereo unspecified), for which the AC50 under setting [1] was 0.891 µM [falling, full curve, poor fit] and the AC50 under setting [2] is 0.891 µM [falling, full curve, poor fit].
Consider `Oc1cc(O)cc(/C=C/c2ccc(O)c(O)c2)c1`, for which the AC50 is, setting by setting: under setting [1], 12.6 µM [falling, partial curve]; under setting [2], 0.0562 µM [falling, full curve, poor fit].
On to `O=C(/C=C/c1cccs1)N1CCN(c2ccc(O)cc2)CC1`, for which the AC50 under setting [2] is 14.1 µM [rising, partial curve].
For `COc1ccc(CCNC(=O)c2c[nH]c3ccccc3c2=O)cc1OC`, the AC50 under setting [2] is 35.5 µM [rising, single point].
`O=S(Cc1ccccc1)CC(O)(c1ccc(Cl)cc1)c1ccc(Cl)cc1` (stereo unspecified): the AC50 reads like this: under setting [1], 0.708 µM [falling, partial curve, poor fit]; under setting [2], 0.631 µM [falling, full curve].
As to `CCOC(=O)c1c(-c2ccccc2)csc1N1C(=O)Nc2ccccc2N1O`, the AC50 by setting is: under setting [1], 0.0251 µM [rising, full curve]; under setting [2], 0.0224 µM [rising, full curve, poor fit].
In the case of `COc1ccc(N2CCN(C(=O)CN(CCc3ccccc3)S(C)(=O)=O)CC2)cc1`, under setting [2], the AC50 is 31.6 µM [rising, single point].
For the compound `CC1CCN(CCCCOc2ccccc2Br)CC1`, the AC50 under setting [2] was 35.5 µM [rising, single point].
`Cn1nnnc1SCC1=C(C(=O)O)N2C(=O)[C@@H](NC(=O)[C@@H](O)c3ccccc3)[C@@H]2SC1`: the AC50 was 0.282 µM [falling, full curve, poor fit] under setting [1] and 0.000891 µM [falling, full curve, poor fit] under setting [2].
Consider `CCc1ccc(C(=O)CSc2nc3cc(S(=O)(=O)N4CCOCC4)ccc3n2CC)cc1`, for which, under setting [2], the AC50 was 35.5 µM [rising, single point].
Same read-out and setting: the result for `Oc1ccccc1/C=N/Nc1nccnc1Cl` reads 6.31 µM [rising, partial curve]; that for `CC1N(O)C(c2ccc(Cl)cc2Cl)N(O)C1(C)C` (stereo unspecified), 3.55 µM [falling, partial curve, poor fit].
On the same count and under the same terms, the result for `COCCn1c(C)cc(C(=O)CSc2ccc3ccccc3n2)c1C` reads 12.6 µM [rising, partial curve]; that for `Cc1nn(-c2ccccc2)c2nc(-c3cccs3)cc(C(=O)NN)c12`, 0.0224 µM [falling, full curve, poor fit].
Turning to `CNC(=O)[C@H]1O[C@@H](n2cnc3c(NCc4cccc(I)c4)ncnc32)[C@H](O)[C@H]1O`, the AC50 is, setting by setting: under setting [1], 6.31 µM [rising, partial curve, poor fit]; under setting [2], 6.31 µM [rising, single point].
Take `CCOC(=O)c1ccc(NS(=O)(=O)c2cc(-c3nnnn3C(C)C)ccc2OC)cc1`: the AC50 runs as follows: under setting [1], 10 µM [rising, partial curve, poor fit]; under setting [2], 7.94 µM [rising, partial curve].
For the compound `COC(=O)c1c(C#N)c(N)nc2c1CCCC2`, the AC50 under setting [1] is 6.31 µM [falling, single point].
Turning to `CCCCS/C(N)=N/N=C/c1cc(C)ccc1O`, the AC50 under setting [1] was 0.112 µM [rising, full curve, poor fit].
With `CCOC(=O)c1[nH]c2c(c1C)C(=O)CC(c1ccc(N(C)C)cc1)C2` (stereo unspecified), the AC50 under setting [2] was 14.1 µM [rising, partial curve].
On to `COc1ccc(/C=C2\SC(=O)N(CCNC(=O)CCS(=O)(=O)c3ccc(C)cc3)C2=O)cc1`, for which the AC50 under setting [2] is 25.1 µM [rising, single point].
With `Cc1ccccc1NS(=O)(=O)c1ccc2[nH]cc(C(=O)NCCc3ccccc3)c(=O)c2c1`, under setting [1], the AC50 is 6.31 µM [rising, partial curve].
On the same count and under the same terms, the result for `COC(=O)c1cnc(N2CCN(c3ccc(OC)cc3)CC2)c2ccccc12` reads 0.178 µM [rising, full curve, poor fit].
On to `CCN(CC)c1ccc(C(=O)N/N=C/c2ccccc2OC(F)F)cc1`, for which the AC50 under setting [2] was 35.5 µM [falling, single point].
On the same count and under the same terms, in the case of `Cc1nn(-c2ccccc2)c(C)c1C(=O)Nc1nnc(-c2ccco2)o1` it was 10 µM [rising, partial curve, poor fit].
`CCOC(=O)Nc1cccc(Nc2ccccc2)c1`: the AC50 under setting [2] was 20 µM [rising, partial curve, poor fit].
`COc1ccc(-c2cc(=O)oc3cc(OCC(C)=O)ccc23)cc1`: the AC50 under setting [2] is 15.8 µM [rising, partial curve, poor fit].
As for `O=C(Cc1ccccc1[N+](=O)[O-])NCc1ccc(Cl)cc1`, the AC50 under setting [2] was 10 µM [falling, single point].
Consider `Cc1nn(Cc2c(Cl)cccc2Cl)c(C)c1NC(=O)/C=C/c1cnn(C)c1C`, for which the AC50 under setting [1] was 35.5 µM [falling, single point].
Consider `O=C1N=C(N2CCOCC2)SC1=C1CCCCC1`, for which the AC50 reads like this: under setting [1], 0.282 µM [rising, full curve, poor fit]; under setting [2], 3.55 µM [rising, partial curve, poor fit].
Consider `CC(C)C(Sc1nc(-c2ccccc2)cc(-c2ccccc2)c1C#N)C(=O)O` (stereo unspecified), for which the AC50 under setting [1] is 35.5 µM [falling, single point] and the concentration at half-maximal activity (AC50) under setting [2] is 35.5 µM [falling, single point].
Regarding `NC(=S)NNc1ccnc2cc(Cl)ccc12`, the AC50 under setting [1] is 15.8 µM [falling, single point].
With `Cc1cccc2sc(NC(=O)CCNS(=O)(=O)c3cccc4nonc34)nc12`, the AC50 under setting [2] was 20 µM [rising, single point].
For the compound `CCOC(=O)c1sc2nccc(N(C)C)c2c1N=CNOCc1c(F)cccc1Cl`, the AC50 was 17.8 µM [rising, single point] under setting [1] and 31.6 µM [rising, single point] under setting [2].
`O=C(Nc1nc2ccccc2s1)C1CC(=O)N(c2ccc(F)cc2)C1` (stereo unspecified): the AC50 under setting [2] was 7.08 µM [rising, partial curve, poor fit].
In the case of `CCCCCCOC(=O)c1ccccc1NC(=O)/C=C/C(=O)O`, the AC50 under setting [1] is 0.0316 µM [falling, single point] and the AC50 under setting [2] was 0.0251 µM [falling, single point].
On to `CC1CCN(C2(O)C(=O)Nc3ccc(Br)cc32)CC1` (stereo unspecified), for which the concentration at half-maximal activity (AC50) under setting [2] was 14.1 µM [rising, single point].
Consider `O=C(Nc1ccccc1C(F)(F)F)c1ncoc1-c1ccco1`, for which the AC50 under setting [1] is 7.94 µM [falling, partial curve].
Consider `O=C(Cc1ccc([N+](=O)[O-])cc1)Nc1nnc(C2CC2)s1`, for which the AC50 under setting [1] was 3.16 µM [rising, single point].
Consider `CCNc1nc(Oc2ccc(C#N)cc2)cc(C(F)(F)F)n1`, for which the AC50 under setting [2] was 2.24 µM [rising, single point].
For `CC(C)Cc1nnc(NC(=O)CSc2ncn[nH]2)s1`, the AC50 is 17.8 µM [rising, single point] under setting [1] and 17.8 µM [rising, partial curve, poor fit] under setting [2].
As to `CC1CCCC(NC(=S)NC(=O)c2cncc(Br)c2)C1C` (stereo unspecified), under setting [1], the AC50 was 35.5 µM [rising, single point].
